Reference: patent US20100227935A1, “CLASS OF TERPENE-DERIVED COMPOUNDS HAVING AN ANTIBIOTIC ACTIVITY, COMPOSITIONS CONTAINING THE SAME AND USES THEREOF” (Centre National De La Recherche Scientifique, priority 2006, published 2010)

Experiments:
Type in all cases: cell-based
[1] = system: Staphylococcus aureus H18; assay: MIC / antibiotic susceptibility
[2] = system: Staphylococcus aureus H16
Staphylococcus aureus H9 = assay: MIC / antibiotic susceptibility
Staphylococcus aureus H3 = assay: MIC / antibiotic susceptibility
Staphylococcus aureus H4 = assay: MIC / antibiotic susceptibility
Staphylococcus aureus H1 = assay: MIC / antibiotic susceptibility
Staphylococcus aureus H7 = assay: MIC / antibiotic susceptibility
Further: key: R: strain resistant to antibiotic concerned; S: strain sensitive to antibiotic concerned; L strain with intermediate resistance to antibiotic concerned.

SMILES: CCC[C@@H]1C[C@@H](C(=O)N[C@@H]([C@H]2O[C@H](SC)[C@H](O)[C@@H](O)[C@H]2O)[C@H](C)Cl)N(C)C1 [Clindamycin]
- Susceptibility of strain to antibiotic [1]: R
- Susceptibility of strain to antibiotic [2]: R
- Susceptibility of strain to antibiotic (Staphylococcus aureus H9): S
- Susceptibility of strain to antibiotic (Staphylococcus aureus H3): R
- Susceptibility of strain to antibiotic (Staphylococcus aureus H4): S
- Susceptibility of strain to antibiotic (Staphylococcus aureus H1): S
- Susceptibility of strain to antibiotic (Staphylococcus aureus H7): R
